Article PMC12040169 (PLOS Biology, 2025)
The list shows a part of the results.

System: T1, CTL2-GFP (C. trachomatis L2/434/Bu, GFP-expressing)
T1 construct: L2/434/Bu, GFP-expressing
Parameters: species or system HeLa; Intracellular C. trachomatis growth in HeLa cells, bulk GFP fluorescence relative to DMSO
Conditions: bulk GFP, single well; 28.5 h, 10 µM; inhibitor

| Compound | % of control remaining [%] |
| --- | --- |
| CC(=O)Nc1cccc(-n2cc(-c3cccc(C(F)(F)F)c3)nn2)c1 [CBK112938] | 101.384 |
| O=C(c1ccco1)N1CCC(n2c(=O)oc3ccccc32)CC1 [CBK284350] | 103.648 |
| Cc1cccc(-c2ccc3c(c2)C(=O)N2CC[C@H](NC(=O)NC(C)C)C[C@H]2C(=O)N3)c1C [CBK289567] | 119.938 |
| CN(/N=C\c1ccc([N+](=O)[O-])cc1)c1nc(-c2ccccc2)cc(-c2ccccc2)n1 [CBK261517] | 105.54 |
| O=C(O)CCCc1ccc2sc3ccccc3c2c1 [CBK010971] | 135.965 |
| CN1CCN(CCCNC(=O)C2(c3ccccc3)CCCC2)CC1 [CBK149521] | 124.827 |
| N#Cc1c(Nc2cccc(C(F)(F)F)c2)sc(C(=O)c2ccc3c(c2)OCO3)c1N [CBK074399] | 10.9748 |
| Nc1ncc(-c2ccc(F)c(Cl)c2)nc1NCCCO [CBK063555] | 116.556 |
| CC(C)S(=O)(=O)N1CCC(C(=O)NC(c2ccccc2)c2ccc3ccccc3n2)CC1 (centres unmarked) [CBK059676] | 78.2403 |
| O=C(O)CCc1ccc(-c2cn3ccnc3c(NCc3ccncc3)n2)cc1 [CBK038022] | 174.686 |
| Cn1c(=O)c2c(nc(N3CCN(c4cccc(Cl)c4)CC3)n2CC(=O)O)n(C)c1=O [CBK286803] | 135.092 |
| CN(C)C(=O)c1cccc(-c2cnc(N3CCOCC3)c3nccn23)c1 [CBK091261] | 159.011 |
| O=C(NCN1CCN(c2ccccc2F)CC1)c1cccnc1 [CBK265530] | 125.084 |
| CCc1nc2cc(NC(=O)c3csc(C(C)=O)c3)ccc2n1C [CBK282522] | 84.733 |
| Cc1oc2c(c1C(=O)NCCn1ccnc1C)CCCC2 [CBK281898] | 124.42 |
| NC[C@H]1CC[C@H](C(=O)NCCN2CCc3ccccc32)CC1 [CBK282723] | 129.999 |
| O=[N+]([O-])c1ccccc1/C=C/CN1CCN(CCO)CC1 [CBK261863] | 122.522 |
| Cc1sc(-c2ccc(C(F)(F)F)cc2)nc1COc1cncc(N2CCNCC2)n1 [CBK172383G] | 104.048 |
| CC1CCN(c2ccc(S(=O)(=O)Nc3cc(C(=O)O)cc(C(=O)O)c3)cc2[N+](=O)[O-])CC1 [CBK263886] | 106.544 |
| O=C(O)c1cc(C(=O)O)c(-c2ccccc2)c(C(=O)O)c1 [CBK261101] | 100 |
| COc1ccc(C(=O)CSc2nnc(-c3ccc4c(c3)OCO4)n2-c2ccccc2)cc1 [CBK263592] | 100 |
| Cc1noc(C)c1S(=O)(=O)Nc1c(C(=O)N2CCN(C)CC2)[nH]c2ccccc12 [CBK050057] | 107.823 |
| CC(O)c1nc2ccccc2n1C (centres unmarked) [CBK115560] | 170.731 |
| COc1ccc(NS(=O)(=O)c2ccc(Cl)c(C(=O)Nc3ccccc3C(=O)O)c2)cc1 [CBK263209] | 64.7488 |
| CCN(CC)C(=O)c1sc2ncccc2c1NS(=O)(=O)c1ccc(C)c([N+](=O)[O-])c1 [CBK050618] | 101.606 |

An excerpt from above in order of molar mass, high to low.

| Compound | % of control remaining [%] |
| --- | --- |
| Cn1c(=O)c2c(nc(N3CCN(c4cccc(Cl)c4)CC3)n2CC(=O)O)n(C)c1=O [CBK286803] | 135.092 |
| NC[C@H]1CC[C@H](C(=O)NCCN2CCc3ccccc32)CC1 [CBK282723] | 129.999 |
| O=C(O)CCCc1ccc2sc3ccccc3c2c1 [CBK010971] | 135.965 |

Remaining list, next part.

| Compound | % of control remaining [%] |
| --- | --- |
| CC(C)NC(=O)C1CC2CCC1CC21NC(=O)c2ccccc2O1 (centres unmarked) [CBK284353] | 125.645 |
| COc1ccccc1C(CNC(=O)Nc1cc(C)on1)N1CCCC1 (centres unmarked) [CBK304586] | 117.514 |
| O=C(NCCCNC1CCc2[nH]c3ccccc3c2C1)c1cccc(Br)c1 (centres unmarked) [CBK107130T] | 89.0282 |
| Cn1nccc1NC(=O)Nc1ccc(CN2CCOC2=O)cc1 [CBK306279] | 149.711 |
| COc1cc(F)cc(OC2CCNCC2)c1NC(=O)C1CCC1 [CBK045912T] | 104.203 |
| COc1ccc(C2C(C(=O)Nc3ccc(C)cc3)=C(C)Nc3ncnn32)cc1OC (centres unmarked) [CBK294416] | 138.269 |
| Cc1cc(C)nc(Nc2ccc(C3CCCN(C(=O)C(C)(C)c4cccc(F)c4)C3)nc2)n1 (centres unmarked) [CBK286007] | 101.627 |
| COc1ccc(C2(NCc3ccc(N4CCCC4=O)cc3)CC2)cc1 [CBK282834] | 99.5888 |
| CCCn1c(C)cc(-c2csc(NC(=O)CCn3c(-c4cccs4)n[nH]c3=S)n2)c1C [CBK295326] | 143.297 |
| O=C(O)Cc1ccc(NC(=O)c2cccc(NC(=O)c3ccco3)c2)cc1 [CBK268606] | 102.74 |
| COc1ccccc1N(CC(O)CN1CCCC1)S(=O)(=O)c1ccccc1 (centres unmarked) [CBK264829] | 90.766 |
| CCOC(=O)N1CCN(Cc2nc3c(c(=O)n(C)c(=O)n3C)n2Cc2ccccc2C)CC1 [CBK269325] | 110.305 |
| Nn1cnn2c(SCCSC3CCCCC3)nnc12 [CBK263192] | 115.682 |
| CCOc1ccc(NC(=O)N(Cc2cnn(C)c2)CC(C)C)cc1C#N [CBK307636] | 134.872 |
| Cc1ccc(S(=O)(=O)N(CC(=O)NCc2ccco2)c2cc(C)cc(C)c2)cc1 [CBK263982] | 115.439 |
| CCn1c(COc2ccc(C(=O)O)cc2)nc2ccccc21 [CBK267647] | 136.181 |
| COc1ccccc1C(C)CN(C)C (centres unmarked) [CBK011948C] | 137.669 |
| Cc1cc(Cl)ccc1CNC(=O)C1=CC(=O)CC(C)(C)O1 [CBK153282] | 102.589 |
| Cc1ccc(CNc2c(-c3ccco3)nc3cnccn23)cc1 [CBK283693] | 149.041 |
| O=C(c1ccccc1)N1CCCC(c2nnc(-c3cccs3)o2)C1 (centres unmarked) [CBK283059] | 67.0626 |
| COc1cc2c(cc1OC)CN(CCN1CCCCC1)CC2 [CBK126439] | 100 |
| N#C/N=C(/Nc1cccnc1)Oc1ccccc1 [CBK012612] | 109.486 |
| Cc1nnc(CN(CC2CCCO2)C2CCC(C)CC2)o1 (centres unmarked) [CBK304824] | 133.824 |
| Nc1ncc(-c2cc(C(F)(F)F)cc(C(F)(F)F)c2)nc1N1CCN(CCO)CC1 [CBK063426] | 76.4954 |
| COc1ccc(Cc2nc(C3CCC3)n(CC3COCCO3)n2)cc1 (centres unmarked) [CBK307378] | 153.734 |
